# Primary screen of a compound library

Source: ChEMBL document CHEMBL3988442, “University of Dundee, Small-Polar-MMV Screening Library” (2021).

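Whole-cell growth test on Mycobacterium tuberculosis, read after 4 days in a medium based on cholesterol and the lipid DPPC; the read-out is not stated. Compounds at 50 µM. The record gives no direction; compounds that gave an IC50 in retests scored well above the rest, so higher reads as more growth inhibition. About 69,000 compounds were tested under these conditions; 0.54% (about 370) showed 50% or more at least once.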

Results are given as percent effect. The record does not define 0% and 100%; most values in the screen are far below 50% and negative numbers occur (in some assays of this library far below -100). This is an unselected part of the compounds tested. Two or more numbers in one place are separate tests of the same structure; such repeats can differ widely.

{"smiles": "Cn1cnc(-c2nc(C(=O)NCCN3CCOCC3)c3ccccn23)c1", "effect": -4.026}
{"smiles": "O=C(O)C(F)(F)F.O=C(O)C(F)(F)F.[H][C@@]12C[C@@H](Oc3cncnc3)CN1CCN(c1ncc(F)cn1)C2", "effect": -13.84}
{"smiles": "CC(C)N(C)CCCNC(=O)c1cnn(C(C)(C)C)c1C(F)(F)F", "effect": -2.935}
{"smiles": "Cc1cc(CN(C)C(=O)c2ccc(Cl)cc2N2CCCC2=O)no1", "effect": -4.898}
{"smiles": "CC(C)C(C)NC(=O)Nc1cccc(OCC#N)c1", "stereo": "stereo not drawn", "effect": 6.2}
{"smiles": "O=C(NCCc1nnc[nH]1)Nc1cccc(SC(F)F)c1", "effect": 11.32}
{"smiles": "Cc1nc(-c2cc(C(=O)NCCN3CCOCC3)c3ccccn23)cs1.O=C(O)C(F)(F)F", "effect": -5.184}
{"smiles": "Cc1ncsc1C(=O)N1CCn2nc(CN3CCSCC3)cc2C1", "effect": -0.681}
{"smiles": "Cn1nc(C2CCCN(C(=O)Cc3ccsc3)C2)c2nccnc21", "stereo": "stereo not drawn", "effect": -14.4}
{"smiles": "Cc1nc(N(C)C)nc(NCCc2ccccn2)c1C", "effect": 6.327}
{"smiles": "CN(CCCOc1ccc(F)cc1)S(=O)(=O)c1cnn(C)c1", "effect": 0.508}
{"smiles": "Cc1cc(NC(=O)CN2CCC(N3CCNC3=O)CC2)on1", "effect": -8.842}
{"smiles": "CC(O)CN1CCN(C(=O)Cc2ccccc2Cl)CC1", "stereo": "stereo not drawn", "effect": 18.63}
{"smiles": "CCOc1ccc2[nH]c3c(N(C)CC4OCCO4)ncnc3c2c1", "effect": 3.493}
{"smiles": "O=C(O)C(F)(F)F.[H][C@]12CCCN(CC3CCOCC3)[C@@]1([H])CN(C(=O)c1ccco1)C2", "effect": -28}
{"smiles": "COc1ccccc1C(=O)C1CCCN(c2cc(C#N)ccn2)C1", "stereo": "stereo not drawn", "effect": -10.19}
{"smiles": "O=C(O)C(F)(F)F.O=C(O)C(F)(F)F.[H][C@@]12CN(Cc3nccn3C)C[C@]1([H])OCCN2Cc1c(C)noc1C", "effect": 5.935}
{"smiles": "COc1ccccc1OCC(=O)Nc1ncccc1C", "effect": 4.246}
{"smiles": "CCCc1nnc2sc(CC3CN(Cc4ccccc4)CCO3)nn12", "stereo": "stereo not drawn", "effect": -18.46}
{"smiles": "[H][C@]12CN(c3cnn(C)c3)C(=O)[C@@]1([H])CN(S(=O)(=O)C1CC1)C2", "effect": -6.812}
{"smiles": "C[C@H](c1ccc(Cl)cc1)n1c(C2CC2)n[nH]c1=O", "effect": 10.81}
{"smiles": "Cc1csc(N2CCN(C(=O)C3(C#N)CCCC3)CC2)n1", "effect": 7.132}
{"smiles": "Cc1cc2c(cc1C)OC1(C=C2)CCN(CC(=O)N2CCOCC2)CC1", "effect": "-19 and 14.65"}
{"smiles": "CN(C)C(=O)CNC(=O)c1ccc2ccc(N(C)CC3CC3)n2c1", "effect": "-3.666 and 2.334"}
{"smiles": "Cc1cc(NCCc2nnc(N)s2)nc(-c2cccnc2)n1", "effect": 7.324}
{"smiles": "CN(C)C(=O)Cc1ccc(NC(=O)NC2CC2)cc1", "effect": -21.03}
{"smiles": "Cc1nccn1-c1cc(CNC(=O)N2CCSCC2)ccn1", "effect": "-1.763 and -6.422"}
{"smiles": "Cc1cnn(CC2CCCN2C(=O)c2cn(C)c3ccccc23)c1", "stereo": "stereo not drawn", "effect": -5.751}
{"smiles": "Cc1noc(CNC(=O)NCCc2ccc(Cl)cc2)n1", "effect": -8.119}
{"smiles": "CNC(=O)c1cc(C)n(-c2cccc(OC)c2)c1C", "effect": 0.5687}
{"smiles": "Cl.Nc1cccnc1N1CCCCCC1", "effect": 7.914}
{"smiles": "CN(Cc1ccncc1)C1COC2(CCN(c3ncc(F)cn3)CC2)C1.O=C(O)C(F)(F)F.O=C(O)C(F)(F)F", "stereo": "stereo not drawn", "effect": -6.559}
{"smiles": "O=C1CCCN1c1cccc(CNCc2cc(F)ccc2F)c1", "effect": 30.95}
{"smiles": "O=C(O)C(F)(F)F.[H][C@@]12CCN(Cc3ccccc3F)[C@]1([H])CC[C@@H](C(=O)NC)O2", "effect": 5.302}
{"smiles": "CCc1cc(C(=O)N2CCC(C3CCN(c4ncccn4)CC3)C2)on1", "stereo": "stereo not drawn", "effect": -21.61}
{"smiles": "[H][C@@]12CCN(CC3CCOCC3)[C@]1([H])CC[C@H](c1nnc(C)o1)O2", "effect": -8.087}
{"smiles": "Cc1noc(C)c1C1CCCN1C(=O)CN1CC2(CCNCC2)OC1=O", "stereo": "stereo not drawn", "effect": -3.86}
{"smiles": "CCn1cc(CN2CCCC(CO)(CCc3ccccc3)C2)c(C)n1", "stereo": "stereo not drawn", "effect": 13.25}
{"smiles": "CCCNC(=O)C1(CC2CC(c3ccccc3OC)=NO2)CCOCC1", "stereo": "stereo not drawn", "effect": 11.65}
{"smiles": "CC(C)Cc1noc(C2CCCN(C(=O)CCc3cnn(C)c3)C2)n1", "stereo": "stereo not drawn", "effect": 1.037}
{"smiles": "Cn1c(-c2ccccc2Cl)nc2cc(C(=O)NCCOCCO)cnc21", "effect": 2.247}
{"smiles": "O=C(N1CCOCC1)N1CCC2(CC1)CN(c1ccccn1)CCO2", "effect": -10.84}
{"smiles": "CCCn1cc(-c2cc(-c3cc(CC)n[nH]3)c(C#N)c(N)n2)c(C)n1", "effect": 2.401}
{"smiles": "O=C(O)C(F)(F)F.[H][C@@]12CN(c3cc(OC)ncn3)C[C@H](C(=O)NCC3CC3)[C@]1([H])CCO2", "effect": 11.39}
{"smiles": "[H][C@]12CCN(C(=O)c3ccccc3)C[C@@]1([H])OCCN(C(C)=O)C2", "effect": 0.4206}
{"smiles": "CS(=O)(=O)N1CCCn2nc(CNc3ncccn3)cc2C1", "effect": 9.802}
{"smiles": "Cc1nc(C(=O)N2CC[C@@]3(C[C@@H](NS(C)(=O)=O)CCO3)C2)cs1", "effect": "-12.49 and 14.5"}
{"smiles": "CC(C)N1C[C@H](NC(=O)c2coc(COc3cccc(F)c3)n2)[C@@H](O)C1", "effect": "-17.6 and 0.8961"}
{"smiles": "CC(C)=CCC1(C(=O)O)CCCN(c2ccnc(C)n2)C1", "stereo": "stereo not drawn", "effect": 1.105}
{"smiles": "O=C(Cc1ccc(F)cc1)NCCNCc1cccc(O)c1", "effect": -8.317}
{"smiles": "COc1cccnc1NC(=O)COc1c(C)cccc1C", "effect": -17.57}

Once more, the final 6:

{"smiles": "CS(=O)(=O)N1CCCn2nc(CNc3ncccn3)cc2C1", "effect": 9.802}
{"smiles": "Cc1nc(C(=O)N2CC[C@@]3(C[C@@H](NS(C)(=O)=O)CCO3)C2)cs1", "effect": "-12.49 and 14.5"}
{"smiles": "CC(C)N1C[C@H](NC(=O)c2coc(COc3cccc(F)c3)n2)[C@@H](O)C1", "effect": "-17.6 and 0.8961"}
{"smiles": "CC(C)=CCC1(C(=O)O)CCCN(c2ccnc(C)n2)C1", "stereo": "stereo not drawn", "effect": 1.105}
{"smiles": "O=C(Cc1ccc(F)cc1)NCCNCc1cccc(O)c1", "effect": -8.317}
{"smiles": "COc1cccnc1NC(=O)COc1c(C)cccc1C", "effect": -17.57}